Measured values from PMC11622160.
No constants are given. Whether binding was seen depends on the method and setting. In cells and extracts the contact can be indirect. Some binding calls cover weakened binding; strength is not graded here.

By UniProt entry, the sequences of proteins in these tests, tags left out.
UniProt Q9H1Y0: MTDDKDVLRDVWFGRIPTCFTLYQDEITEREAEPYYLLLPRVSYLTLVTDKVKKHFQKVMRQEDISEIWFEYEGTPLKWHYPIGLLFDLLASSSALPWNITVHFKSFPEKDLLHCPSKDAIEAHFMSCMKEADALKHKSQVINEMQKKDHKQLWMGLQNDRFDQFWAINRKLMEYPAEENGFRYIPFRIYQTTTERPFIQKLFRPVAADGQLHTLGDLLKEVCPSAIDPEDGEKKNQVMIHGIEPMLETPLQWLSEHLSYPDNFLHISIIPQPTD

Target: autophagy-related protein 5 (Atg5) (human (endogenous in HCE-2)) (UniProt Q9H1Y0)
Experiment: co-IP; HCEC lysate (cells in normal or hyperosmotic medium for six hours) incubated overnight at 4°C with Atg5 antibody (1:100), Perilipin3 antibody (1:100) or control IgG; rProtein A/G beads; immunoprecipitates analysed by Western blot

B1: Perilipin3 (protein, UniProt O60664 1-434)
chain: MSADGAEADGSTQVTVEEPVQQPSVVDRVASMPLISSTCDMVSAAYASTKESYPHIKTVCDAAEKGVRTLTAAAVSGAQPILSKLEPQIASASEYAHRGLDKLEENLPILQQPTEKVLADTKELVSSKVSGAQEMVSSAKDTVATQLSEAVDATRGAVQSGVDKTKSVVTGGVQSVMGSRLGQMVLSGVDTVLGKSEEWADNHLPLTDAELARIATSLDGFDVASVQQQRQEQSYFVRLGSLSERLRQHAYEHSLGKLRATKQRAQEALLQLSQVLSLMETVKQGVDQKLVEGQEKLHQMWLSWNQKQLQGPEKEPPKPEQVESRALTMFRDIAQQLQATCTSLGSSIQGLPTNVKDQVQQARRQVEDLQATFSSIHSFQDLSSSILAQSRERVASAREALDHMVEYVAQNTPVTWLVGPFAPGITEKAPEEKK
For B1, the binding was “binds”.
